Binding data for six substances are collected here from paper doi:10.1101/2025.08.31.673341.

Results are given in words; binding and its absence hold for the method and conditions named. For some assays here: Binding can be weak; no strength is given. Sequences can lack the tags named with a protein. For some assays here: In cells and extracts the contact can be indirect.

For assay [1], the target named is T1, REVEILLE6 (RVE6), GAL4 activation domain fusion (Arabidopsis) (UniProt Q8H0W3).
T1 sequence: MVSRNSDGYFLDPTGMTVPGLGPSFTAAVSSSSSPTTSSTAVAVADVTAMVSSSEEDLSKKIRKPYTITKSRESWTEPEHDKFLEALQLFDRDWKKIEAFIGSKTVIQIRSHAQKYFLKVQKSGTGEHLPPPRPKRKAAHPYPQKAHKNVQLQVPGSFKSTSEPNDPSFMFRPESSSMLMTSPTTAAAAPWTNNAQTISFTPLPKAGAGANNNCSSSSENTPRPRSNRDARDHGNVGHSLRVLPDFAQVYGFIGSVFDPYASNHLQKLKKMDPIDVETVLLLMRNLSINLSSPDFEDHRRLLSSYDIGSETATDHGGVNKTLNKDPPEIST
Put plainly: two-hybrid.

The target of assay [2] is T2, LATE ELONGATED HYPOCOTYL (LHY), GAL4 activation domain fusion (Arabidopsis) (UniProt Q6R0H1).
T2 sequence: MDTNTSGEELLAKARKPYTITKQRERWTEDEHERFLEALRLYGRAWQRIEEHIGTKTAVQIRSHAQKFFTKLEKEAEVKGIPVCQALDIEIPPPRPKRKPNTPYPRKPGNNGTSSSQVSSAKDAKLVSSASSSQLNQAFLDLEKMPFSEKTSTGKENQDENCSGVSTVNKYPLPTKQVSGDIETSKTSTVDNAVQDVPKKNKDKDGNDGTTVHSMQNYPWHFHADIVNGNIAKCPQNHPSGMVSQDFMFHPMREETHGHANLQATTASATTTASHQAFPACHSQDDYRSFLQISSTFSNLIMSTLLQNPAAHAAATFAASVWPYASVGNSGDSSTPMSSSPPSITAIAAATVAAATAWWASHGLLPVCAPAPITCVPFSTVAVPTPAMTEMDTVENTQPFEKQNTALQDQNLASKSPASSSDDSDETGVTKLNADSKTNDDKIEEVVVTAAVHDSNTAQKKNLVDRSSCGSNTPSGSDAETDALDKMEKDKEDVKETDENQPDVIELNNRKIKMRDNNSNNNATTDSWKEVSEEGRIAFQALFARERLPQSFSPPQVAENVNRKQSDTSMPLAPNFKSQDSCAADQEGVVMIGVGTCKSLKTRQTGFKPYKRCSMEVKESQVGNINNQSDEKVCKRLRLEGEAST
Put plainly: two-hybrid.

The target of assay [3] is T3, CK2, GAL4 activation domain fusion (Arabidopsis) (UniProt Q08466).
T3 sequence: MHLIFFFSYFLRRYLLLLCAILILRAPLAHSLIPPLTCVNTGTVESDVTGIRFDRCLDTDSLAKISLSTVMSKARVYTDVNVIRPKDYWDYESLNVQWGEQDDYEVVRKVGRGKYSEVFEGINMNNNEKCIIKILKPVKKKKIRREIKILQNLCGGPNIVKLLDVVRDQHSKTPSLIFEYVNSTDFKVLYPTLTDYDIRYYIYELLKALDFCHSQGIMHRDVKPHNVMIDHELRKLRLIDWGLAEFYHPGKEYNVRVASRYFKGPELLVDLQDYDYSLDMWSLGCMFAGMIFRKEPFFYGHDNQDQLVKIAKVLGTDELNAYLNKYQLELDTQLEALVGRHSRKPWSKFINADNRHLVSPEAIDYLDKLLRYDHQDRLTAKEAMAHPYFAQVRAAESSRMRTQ
The assay is described as follows: two-hybrid.

The target in assay [4] is T4, LHY fused to the N-terminal part of YFP (YFPn) (Arabidopsis) (UniProt Q6R0H1).
T4 sequence: T2 sequence
The assay is described as follows: split reporter.

For assay [5], the target named is T5, CK2 fused to the N-terminal part of YFP (YFPn) (Arabidopsis) (UniProt Q08466).
T5 sequence: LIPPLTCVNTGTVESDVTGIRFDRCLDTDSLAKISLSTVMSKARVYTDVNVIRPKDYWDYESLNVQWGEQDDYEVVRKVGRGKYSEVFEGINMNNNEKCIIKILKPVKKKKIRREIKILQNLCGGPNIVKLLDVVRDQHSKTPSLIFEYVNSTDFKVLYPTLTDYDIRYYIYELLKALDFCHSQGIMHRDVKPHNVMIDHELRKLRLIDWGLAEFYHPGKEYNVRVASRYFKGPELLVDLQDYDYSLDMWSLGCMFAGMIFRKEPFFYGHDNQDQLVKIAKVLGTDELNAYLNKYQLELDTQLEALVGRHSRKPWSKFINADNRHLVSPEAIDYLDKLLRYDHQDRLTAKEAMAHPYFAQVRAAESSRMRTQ
Put plainly: split reporter.

The target of the next assay is T6, FLAG-LHY (Arabidopsis) (UniProt Q6R0H1).
T6 sequence: T2 sequence
The assay is described as follows: co-IP.

The target of assay [6] is T7, LIGHT-REGULATED WD1 (LWD1), GAL4 activation domain fusion (Arabidopsis) (UniProt Q9LPV9).
T7 sequence: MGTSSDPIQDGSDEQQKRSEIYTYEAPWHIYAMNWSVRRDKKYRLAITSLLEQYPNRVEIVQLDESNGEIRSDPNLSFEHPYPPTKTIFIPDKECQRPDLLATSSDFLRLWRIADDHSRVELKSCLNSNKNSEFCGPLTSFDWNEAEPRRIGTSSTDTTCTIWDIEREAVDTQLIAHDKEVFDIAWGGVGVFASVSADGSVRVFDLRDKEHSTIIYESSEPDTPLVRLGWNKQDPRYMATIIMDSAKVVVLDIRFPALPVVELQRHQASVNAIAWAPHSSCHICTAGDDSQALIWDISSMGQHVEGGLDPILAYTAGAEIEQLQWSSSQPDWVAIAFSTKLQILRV
The assay is described as follows: two-hybrid.

For “ALTERED CLOCK F-BOX 1 (ACF1) decoy, GAL4 DNA-binding domain fusion (Arabidopsis) (domain or fragment)”, the binding entry in assay [1] is listed as “binds”. “PLANT U-BOX 18 (PUB18) decoy, GAL4 DNA-binding domain fusion (Arabidopsis) (domain or fragment)”: the binding entry in assay [2] and in assay [3] was “binds” in each case. Take “U-box-deleted PUB18 (PUB18dU) fused to the C-terminal part of YFP (YFPc) (Arabidopsis) (domain or fragment)”: the results for the binding entry in assay [4] and in assay [5] were “binds” and “no binding”, respectively. For “U-box-deleted PUB19 (PUB19dU) fused to the C-terminal part of YFP (YFPc) (Arabidopsis) (domain or fragment)”, the binding result in assay [4] is given as “no binding”.

Take “YFP-PUB18dU (U-box-deleted PUB18 fused to YFP) (Arabidopsis) (domain or fragment)”: the binding entry with FLAG-LHY (Arabidopsis) is on record as “binds”.

On to “ZEITLUPE (ZTL) decoy, GAL4 DNA-binding domain fusion (Arabidopsis) (domain or fragment)”, for which the binding entry in assay [6] is “binds”.
